From publication PMC4071220
No constants are given. Whether binding was seen depends on the method and setting. In cells and extracts the contact can be indirect. Some binding calls cover weakened binding; strength is not graded here.

By UniProt entry, the sequences of proteins in these tests, tags left out.
UniProt O75925: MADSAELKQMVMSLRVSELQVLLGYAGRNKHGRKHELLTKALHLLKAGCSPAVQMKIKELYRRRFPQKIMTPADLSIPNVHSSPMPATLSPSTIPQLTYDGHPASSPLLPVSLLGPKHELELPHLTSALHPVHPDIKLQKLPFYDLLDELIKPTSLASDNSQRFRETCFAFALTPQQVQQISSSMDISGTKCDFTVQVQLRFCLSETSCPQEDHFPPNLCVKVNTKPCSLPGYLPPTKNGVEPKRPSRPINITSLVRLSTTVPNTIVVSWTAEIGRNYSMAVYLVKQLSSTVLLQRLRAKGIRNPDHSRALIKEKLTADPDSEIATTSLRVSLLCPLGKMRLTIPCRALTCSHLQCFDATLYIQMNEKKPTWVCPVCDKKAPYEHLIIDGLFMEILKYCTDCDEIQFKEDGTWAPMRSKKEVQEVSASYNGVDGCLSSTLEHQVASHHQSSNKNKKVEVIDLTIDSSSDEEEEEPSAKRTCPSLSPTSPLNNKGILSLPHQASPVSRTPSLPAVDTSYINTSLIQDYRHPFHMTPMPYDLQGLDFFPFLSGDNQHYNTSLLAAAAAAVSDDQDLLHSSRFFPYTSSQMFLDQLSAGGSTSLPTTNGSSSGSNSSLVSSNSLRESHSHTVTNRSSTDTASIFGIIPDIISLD

Biological target: protein inhibitor of activated STAT1 (PIAS1), endogenous (human (endogenous in HEK293T)) (UniProt O75925)
Assay: co-IP; HEK293T cell lysate without any plasmid transfection, immunoprecipitated with anti-PIAS1 antibody, immunoblotted with anti-Hes-1 and anti-PIAS1

binding: binds
B1: Hairy and Enhancer of split 1 (Hes-1), endogenous (protein, UniProt Q14469 1-280)
chain: MPADIMEKNSSSPVAATPASVNTTPDKPKTASEHRKSSKPIMEKRRRARINESLSQLKTLILDALKKDSSRHSKLEKADILEMTVKHLRNLQRAQMTAALSTDPSVLGKYRAGFSECMNEVTRFLSTCEGVNTEVRTRLLGHLANCMTQINAMTYPGQPHPALQAPPPPPPGPGGPQHAPFAPPPPLVPIPGGAAPPPGGAPCKLGSQAGEAAKVFGGFQVVPAPDGQFAFLIPNGAFAHSGPVIPVYTSNSGTSVGPNAVSPSSGPSLTADSMWRPWRN
